# According to PubChem BioAssay AID1487 (National Center for Advancing Translational Sciences (NCATS), 2009):
# Some of the results follow. Shown are side measurements of this screen, not its main read-out; they come without a call. Most of these compounds were active or inconclusive in the main read-out, so they are no random draw. Potencies come from curve fits of mixed quality, noted in brackets.
# Assay: qHTS Assay for Modulators of Lamin A Splicing
# Conditions: HeLa LMNA splicing GFP/RFP minigene ratio, 48 h
# How it was run: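 Read-out is the ratio of GFP to DsRed2 object intensity, acquired by 488 nm laser-scanning cytometry on HeLa lamin A-EGFP minigene reporter cells. Compound incubation 48 hrs at 37 °C in Opti-MEM with 2% FBS; DMSO 0.5% final.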
# [1] = measured here: RFP viability control channel
# [2] = measured here: GFP splicing reporter channel
SMILES,AC50 [1],AC50 [2]
CCCCNC(=O)CN1CCN(c2ncc(NC(=O)c3ccc(Cl)cc3)cc2C(=O)O)CC1,"20 µM [falling, single point]",–
Nc1ccc2nc(Cc3ccccc3)[nH]c2c1,–,"14.1 µM [falling, single point]"
COc1ccc(N(CC(=O)NCCSc2ccccc2)S(C)(=O)=O)cc1,"3.55 µM [falling, partial curve, poor fit]","0.00794 µM [falling, full curve, poor fit]"
O=C(Nc1sc2c(c1C(=O)O)CCCCC2)c1cccs1,"35.5 µM [rising, single point]",–
CCCOc1ccc(CCc2n[nH]c(=S)n2Cc2ccccc2)cc1,"17.8 µM [rising, single point]",–
O=C(c1ccco1)N1CCCC(c2nc(-c3ccc(S(=O)(=O)NCc4ccccc4)cc3)no2)C1 (centres undefined),"3.55 µM [rising, full curve]","5.62 µM [rising, full curve]"
CCCNC(=O)OC[C@H]1O[C@H](CCO/N=C/[C@@H](NS(=O)(=O)c2ccc(C)cc2)[C@H](C)/C=C/CC(=O)OC)C=C[C@@H]1Oc1ccc(OC)cc1,"12.6 µM [rising, partial curve]","7.08 µM [rising, partial curve]"
COc1cccc(CNC(=O)c2cc3ccc4cccnc4c3[nH]2)c1,"11.2 µM [falling, partial curve]",–
COc1cccc2cc(C(=O)OCC(=O)NCc3ccc4c(c3)OCO4)c(=O)oc12,–,"0.631 µM [rising, full curve]"
CC[C@H](C)C(=O)O[C@H]1CCC=C2C=C[C@H](C)[C@H](CC[C@@H]3C[C@H](O)CC(=O)O3)C21 (some centres undefined),"11.2 µM [falling, partial curve]","35.5 µM [falling, single point]"
Nc1ccc2nc(-c3ccccn3)[nH]c2c1,"12.6 µM [rising, single point]",–
COc1ccc(N/C=C(\C#N)c2nc3ccccc3n2C)c(OC)c1,"31.6 µM [rising, partial curve, poor fit]",–
O=C(Nc1ccc2c(c1)OCO2)N1CCN(c2cccc(C(F)(F)F)c2)CC1,"22.4 µM [rising, partial curve]",–
Cc1[nH]c2ccccc2c1C(=O)C(=O)N1CC=C(c2ccccc2)CC1,"31.6 µM [rising, single point]",–
O=C(Cn1c(=O)n2nc(-c3cccc(F)c3)nc2c2ccccc21)N1CCN(c2ccccc2F)CC1,–,"0.0282 µM [falling, partial curve, poor fit]"

# Retrieved by structure from the list above, two records:
SMILES,AC50 [1],AC50 [2]
Nc1ccc2nc(Cc3ccccc3)[nH]c2c1,–,"14.1 µM [falling, single point]"
COc1cccc(CNC(=O)c2cc3ccc4cccnc4c3[nH]2)c1,"11.2 µM [falling, partial curve]",–
